Data published in paper PMC6327505, “Adaption to glucose limitation is modulated by the pleotropic regulator CcpA, independent of selection pressure strength”.
The exact form of at least one protein or probe is not confirmed. The comparison behind a weaker result is the experiment's own reference, which may not be listed here. At least one verdict rests on a figure or table, not on a statement of the authors. Where a protein sequence is shown, tags need not be part of it.

Target: T1, CcpA-Met19 (wild type, Genr0) (Lactococcus lactis MG1363 (strain Genr0)) (UniProt A2RJC5)
T1 sequence (looked up, limits assumed): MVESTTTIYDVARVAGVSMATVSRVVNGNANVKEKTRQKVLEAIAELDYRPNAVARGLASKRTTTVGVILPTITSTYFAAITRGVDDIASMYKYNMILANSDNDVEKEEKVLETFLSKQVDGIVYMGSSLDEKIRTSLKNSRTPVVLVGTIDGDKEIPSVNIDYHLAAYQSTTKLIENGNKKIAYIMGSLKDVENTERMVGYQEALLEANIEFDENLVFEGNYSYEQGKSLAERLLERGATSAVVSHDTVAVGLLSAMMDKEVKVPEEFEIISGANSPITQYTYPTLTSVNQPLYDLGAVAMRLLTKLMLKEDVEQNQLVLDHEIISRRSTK
Assay: EMSA
Details: 100-800 nM CcpA, 4 nM DNA, EMSA: 20 mM Tris-HCl pH 8, 100 mM KCl, 10 mM MgCl2, 1 mM EDTA, 1 mM DTT, 5% glycerol, 40 ug/ml BSA, 4 nM Cy3-DNA, 30 C 20 min, 7.5% native PAGE in TBE, recombinant protein, protein details: N-terminal 6xHis (pQE30), label: 5'-Cy3 on (+) strand

Sequence | binding result (lower affinity than Ile19, largest difference) | binding result (lower affinity than Ile19)
AAAAAATAGATAACGCTTGCATTATGAA (double strand) [ptcB cre (F1/R1)] | binds more weakly | 
TTCTTACTGTTAGCGCTTTCAGTACG (double strand) [syn cre (perfect cre site)] |  | binds more weakly
